PubChem BioAssay AID504791 | Drosophila RNAi Screening Center, 2011

- Aim: 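Genes of the fly required for silencing by miRNA, siRNA or endo-siRNA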 (primary screen)
- Cells: Drosophila S2-derived reporter cells
- Knock-down reagent: long dsRNA against Drosophila genes, about 150-250 ng dsRNA per well (siRNA assay); about 80-120 ng (miRNA assay)
- Time to read-out: about 5 days (siRNA assay); about 4 days (miRNA assay)
- Treatment: copper sulfate induction of reporters: 25 µM (siRNA assay); 200 mM stated (miRNA assay), 1-2 days before reading
- Read-out: 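Dual luciferase assay: Renilla to firefly signal ratio in each well, scaled to the mean ratio of its plate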
- Scale: siRNA reporter hit score: higher = 3 marks a strong hit with raised ratio; -3 a strong hit with lowered ratio
- Rule for the call: 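First-pass picks had plate-scaled ratios over 1.5 for the siRNA assay, over 1.6 for the miRNA assay, or under 0.6; two distinct dsRNAs had to score alike on retest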
In all, the deposit lists about 23,000 reagents; this is an unselected part of those with a known target gene and a result. In the full data, 199 (0.86%) were called active. 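Plate-scaled ratios behind the calls are not deposited; printed light signals are raw; many rows marked increased or decreased are still called inactive.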 Entries without a mark were called inactive. A plus sign joins genes that one reagent is predicted to hit.

Gene,DRSC id,siRNA reporter hit score,stable siRNA reporter change,miRNA reporter change,"stable assay Renilla, run 1 (luminescence)","stable assay firefly, run 1 (luminescence)"
Rab2 (GeneID 35577),DRSC05017,,,,12704,1.49e6
snRNP-U1-70K (GeneID 33982),DRSC03612,,,reporter ratio raised past the hit cutoff (active),4731,4.03e5
snRNP-U1-70K (GeneID 33982),DRSC22071,,reporter ratio raised past the hit cutoff (active),reporter ratio raised past the hit cutoff,22201,4.88e5
snRNP-U1-70K (GeneID 33982),DRSC28803,,,reporter ratio raised past the hit cutoff (active),,
CG30089 (GeneID 36736),DRSC06126,,,,5244,4.29e5
CG30089 (GeneID 36736),DRSC06127,,,,5063,2.00e5
CG30089 (GeneID 36736),DRSC06267,,,,8016,5.18e5
CG30089 (GeneID 36736),DRSC06268,,,,3747,3.44e5
CG30089 (GeneID 36736),DRSC21694,,,,8443,4.29e5
CG18476 (GeneID 41404),DRSC15281,,,,7406,4.76e5
hig (GeneID 35949),DRSC07628,,,reporter ratio raised past the hit cutoff,4810,3.42e5
hig (GeneID 35949),DRSC22827,,,,4111,3.90e5
hig (GeneID 35949),DRSC22899,,reporter ratio raised past the hit cutoff,,5202,1.84e5
Su(var)205 (GeneID 34119),DRSC03446,,,,26547,3.32e5
mi (GeneID 37723),DRSC04498,,,,4.05e5,3.34e5
mi (GeneID 37723),DRSC29425,,,reporter ratio raised past the hit cutoff,,
CG31010 (GeneID 318555),DRSC14006,,,,7094,3.86e5
eEF1delta (GeneID 34363),DRSC02790,,,,16816,4.59e5
CG33281 (GeneID 2768938),DRSC00421,,,,7034,3.34e5
axed (GeneID 38741),DRSC08833,,reporter ratio raised past the hit cutoff,,6091,2.74e5
axed (GeneID 38741),DRSC10982,,,,5792,3.29e5
CG3663 (GeneID 37944),DRSC04402,,,,22189,1.40e6
CG13022 (GeneID 39896),DRSC09902,,,,7702,3.35e5
CG2871 (GeneID 31411),DRSC18230,,,,2964,3.31e5
CG2871 (GeneID 31411),DRSC21719,,,,8467,4.76e5
RpL7-like + CG34164,DRSC02836,,,,5223,3.94e5
RpL7-like + CG34164,DRSC02837,,,,7942,4.79e5
muc (GeneID 34021),DRSC02832,,,,6902,4.65e5
muc (GeneID 34021),DRSC21940,,,,8689,5.54e5
CG10462 (GeneID 35260),DRSC02058,,,,1.96e5,2.36e6
TkR99D (GeneID 43551),DRSC16881,,,,5436,4.10e5
CG10340 (GeneID 42020),DRSC14232,,,,7634,3.13e5
CG6650 (GeneID 39555),DRSC10685,,reporter ratio lowered past the hit cutoff,,9862,6.44e5
rno (GeneID 38027),DRSC08584,,,,5754,3.40e5
SKIP (GeneID 42601),DRSC14713,,,,7186,3.17e5
SKIP (GeneID 42601),DRSC14714,,,,8605,2.83e5
SKIP (GeneID 42601),DRSC15864,,,,6774,3.55e5
SKIP (GeneID 42601),DRSC16195,,,,4870,4.03e5
SKIP (GeneID 42601),DRSC16196,,reporter ratio lowered past the hit cutoff,,2379,3.66e5
Grik (GeneID 42476),DRSC15846,,,,8911,3.89e5
Grik (GeneID 42476),DRSC15847,,,,8158,3.33e5
CycA (GeneID 39340),DRSC09132,,,,3011,3.28e5
CycA (GeneID 39340),DRSC11123,,,,5691,2.89e5
Acsx1L (GeneID 42351),DRSC16014,,,,7398,3.24e5
l(3)neo38 (GeneID 41423),DRSC14946,,,,5219,4.63e5
l(3)neo38 (GeneID 41423),DRSC16138,,,,7271,3.60e5
l(3)neo38 (GeneID 41423),DRSC23262,,,,5379,5.01e5
brat (GeneID 35197),DRSC03497,,,,18421,1.25e6
CG12299 (GeneID 34483),DRSC02158,,,reporter ratio lowered past the hit cutoff,6494,1.74e6
Hk (GeneID 31955),DRSC17638,,,reporter ratio raised past the hit cutoff,4760,4.54e5
Hk (GeneID 31955),DRSC18138,,,,5416,2.11e5
Hk (GeneID 31955),DRSC18674,,,,4080,3.38e5
RpL27 (GeneID 43103),DRSC15638,,,,7467,2.84e5
zen (GeneID 40828),DRSC12632,,,,7339,3.83e5
Or98a (GeneID 43341),DRSC16774,,,,6083,3.77e5
CG9692 (GeneID 39865),DRSC11091,,,,6819,3.10e5
mRpS21 (GeneID 318249),DRSC12965,,,,3687,4.23e5
mRpS21 (GeneID 318249),DRSC21357,,,,7711,4.39e5
CG3280 (retired record) (GeneID 39117),DRSC10356,,,,5404,3.43e5
Jon25Biii (GeneID 33706),DRSC03115,,,,7562,4.17e5
CG4332 (GeneID 32267),DRSC19890,,,,7638,4.17e5
GatC + PolG2,DRSC03312,,,,7618,1.42e6
wdp (GeneID 37548),DRSC04367,,,,13252,1.34e6
CG12182 (GeneID 38324),DRSC08142,,,,11880,4.34e5
Pomp (GeneID 35342),DRSC03201,-3,,,7482,1.09e6
Pomp (GeneID 35342),DRSC27581,,,reporter ratio raised past the hit cutoff,,
Sce (GeneID 43327),DRSC16825,,,,8502,3.54e5
CG7255 (GeneID 39662),DRSC10790,,,,9542,3.51e5
Dcps (GeneID 40711),DRSC12299,,,,7895,3.77e5
LysE (GeneID 38128),DRSC08675,,,,6670,4.21e5
CG2111 (GeneID 31995),DRSC18205,,,,5231,5.06e5
CG2540 (GeneID 32216),DRSC19856,,,,7086,3.28e5
Or67c (GeneID 39189),DRSC11242,,,,6552,4.38e5
CG14543 (GeneID 43167),DRSC14887,,,reporter ratio raised past the hit cutoff,9738,4.81e5
Ir7e (GeneID 7354417),DRSC18011,,,,4947,5.67e5
CG14535 (GeneID 34073),DRSC02393,,,,7602,3.33e5
CG1951 (GeneID 43423),DRSC15403,,,,7706,5.46e5
Mal-B1 (GeneID 34597),DRSC02416,,,,7559,5.21e5
CG14669 (GeneID 40652),DRSC12065,,,,4187,2.28e5
CG14669 (GeneID 40652),DRSC12067,,,,6650,3.99e5
CG14669 (GeneID 40652),DRSC12068,,,,6524,4.21e5
CG14669 (GeneID 40652),DRSC12255,,,,6843,4.03e5
CG1737 (GeneID 32077),DRSC19771,,,,5127,4.36e5

Records above whose target name begins with P or p:
Gene,DRSC id,siRNA reporter hit score,stable siRNA reporter change,miRNA reporter change,"stable assay Renilla, run 1 (luminescence)","stable assay firefly, run 1 (luminescence)"
Pomp (GeneID 35342),DRSC03201,-3,,,7482,1.09e6
Pomp (GeneID 35342),DRSC27581,,,reporter ratio raised past the hit cutoff,,
